Results on 4 molecules are retold here after doi:10.1101/2024.06.20.599818.

Test in all cases: co-IP
The target of assay [1] is T1, PPTC7, ectopically overexpressed (UniProt Q8NI37).
T1 sequence: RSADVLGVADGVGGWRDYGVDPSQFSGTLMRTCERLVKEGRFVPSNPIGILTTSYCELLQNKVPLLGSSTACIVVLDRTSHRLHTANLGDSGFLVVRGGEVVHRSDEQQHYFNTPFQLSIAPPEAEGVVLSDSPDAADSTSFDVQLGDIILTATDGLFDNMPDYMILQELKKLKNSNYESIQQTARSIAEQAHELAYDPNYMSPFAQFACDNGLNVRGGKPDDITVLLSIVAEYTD

In a further assay the target is T2, FLAG-PPTC7 (UniProt Q8NI37).
T2 sequence: T1 sequence

For the next assay, the target named is T3, FLAG-FBXL4 (UniProt Q9UKA2).
T3 sequence: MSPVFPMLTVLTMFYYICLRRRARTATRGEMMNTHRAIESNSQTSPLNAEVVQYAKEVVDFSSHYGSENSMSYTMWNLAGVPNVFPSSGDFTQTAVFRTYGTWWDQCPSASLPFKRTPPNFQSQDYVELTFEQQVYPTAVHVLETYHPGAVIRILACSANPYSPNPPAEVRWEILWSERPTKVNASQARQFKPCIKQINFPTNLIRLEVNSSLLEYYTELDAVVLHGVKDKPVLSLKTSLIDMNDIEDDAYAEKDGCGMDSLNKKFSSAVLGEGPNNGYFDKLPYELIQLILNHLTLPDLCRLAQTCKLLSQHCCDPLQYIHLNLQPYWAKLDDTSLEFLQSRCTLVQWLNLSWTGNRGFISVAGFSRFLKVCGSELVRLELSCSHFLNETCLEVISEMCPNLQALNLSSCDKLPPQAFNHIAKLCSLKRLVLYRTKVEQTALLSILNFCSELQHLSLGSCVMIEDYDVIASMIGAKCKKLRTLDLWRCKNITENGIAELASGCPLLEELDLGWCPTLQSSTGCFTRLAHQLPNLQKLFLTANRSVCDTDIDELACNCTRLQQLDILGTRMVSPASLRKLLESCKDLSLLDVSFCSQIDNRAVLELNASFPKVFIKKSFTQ

These are yes or no findings as the source states them, for the method shown. In cells and extracts the contact can be indirect. Some binding calls cover weakened binding; strength is not graded here. For some of these results: Tags and fused reporters may be left off the sequences shown.

B1: NIPSNAP1, from a transfected plasmid (protein, UniProt Q9BPW8 36-284)
chain: SKDNEGSWFRSLFVHKVDPRKDAHSTLLSKKETSNLYKIQFHNVKPEYLDAYNSLTEAVLPKLHLDEDYPCSLVGNWNTWYGEQDQAVHLWRFSGGYPALMDCMNKLKNNKEYLEFRRERSQMLLSRRNQLLLEFSFWNEPQPRMGPNIYELRTYKLKPGTMIEWGNNWARAIKYRQENQEAVGGFFSQIGELYVVHHLWAYKDLQSREETRNAAWRKRGWDENVYYTVPLVRHMESRIMIPLKISPLQ
Turning to B1, the binding result in assay [1] is reported as “no binding”.

B2: FBXL4, exogenous (protein, UniProt Q9UKA2 1-621)
chain: T3 sequence
Regarding B2, the binding entry in assay [1] was “binds”.

B3: endogenous FBXL4 (protein, UniProt Q9UKA2 1-621)
chain: T3 sequence
As for B3, the binding entry with FLAG-PPTC7 was “binds”.

B4: endogenous PPTC7 (protein, UniProt Q8NI37 69-304)
chain: T1 sequence
B4: the binding entry with FLAG-FBXL4 is “binds”.
